From publication PMC7467916
Results are given in words; binding and its absence hold for the method and conditions named. Binding seen in cells or lysates may run through a third protein. Some entries that bind do so weakly or less than the wild type.

Legend:
[1] = molecular target: NMDA receptor subunit GluN2A (rat (endogenous in primary hippocampal neurons)) (UniProt Q00959); assay: proximity ligation; primary rat hippocampal neurons fixed in cold 10% trichloroacetic acid, permeabilised in 0.1% Triton X-100; mouse antibodies against Na,K-ATPase α1 (a6f) or α3 with rabbit antibodies against GluN2A or GluN2B; Duolink In Situ Red Kit Mouse/Rabbit; signal when the probes are within about 40 nm
[2] = molecular target: NMDA receptor subunit GluN2B (rat (endogenous in primary hippocampal neurons)) (UniProt Q00960); assay: as above

Q: Which binding [1] does the source give for “Na,K-ATPase α3 subunit (from UniProt P06687 1-1013)” here?
A: binds

Q: What about the binding [2] of the same substance?
A: binds
